Data as given in PubChem BioAssay AID1259308 (NCATS, 2017)
Purpose: 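Knock-downs that increase output of a recombinant reporter protein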 (primary screen). System: human HEK293 embryonic kidney cells stably expressing firefly luciferase (HEK-CMV-Luc2-Hygro). Reagent: single siRNA against human genes, 0.8 pmol siRNA per well. Duration: 72 h. Read-out: 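Luciferase light (ONE-Glo) measured on one replicate plate set and viability (CellTiter-Glo) on the other, scaled to a negative control siRNA, with robust z-scores and luciferase per cell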. Reading the numbers: total luciferase, z-score: higher = more reporter protein produced. Hit rule: 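An siRNA counts as active if its total luciferase robust z-score exceeds 3; genes with two or more such siRNAs out of three were retested with fresh siRNAs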. Meaning of the calls: active = raised luciferase; inactive = no rise.
Shown is an unselected part of about 59,000 deposited reagents. About 1,510 of them (2.6%) count as active. 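Calls use total luciferase alone and ignore viability, so some active siRNAs may act by altering cell number.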 Entries without a mark were called inactive. The numbers tell different reagents against one gene apart. Not all columns of the deposit are shown.

total luciferase, z-score, by gene knocked down and reagent
TAAR1 (GeneID 134864): #1 -0.597; #2 0.156; #3 -0.512
OSR1 (GeneID 130497): #1 1.87; #2 -1.2; #3 0.959
OR5AP2 (GeneID 338675): #1 2.26; #2 -3.28; #3 -0.456

Reprinted from above for reference:
total luciferase, z-score, by gene knocked down and reagent
OR5AP2 (GeneID 338675): #1 2.26; #2 -3.28

Additional reagents follow:
total luciferase, z-score, by gene knocked down and reagent
ANGPTL2 (GeneID 23452): #1 1.88; #2 0.224; #3 -0.365
ZAN (GeneID 7455): #1 -0.179; #2 1.13; #3 0.942
TIAL1 (GeneID 7073): #1 -0.192; #2 1.72; #3 0.633
GNB1 (GeneID 2782): #1 -0.889; #2 0.476; #3 4.12 (active)
ZNF799 (GeneID 90576): #1 -0.311; #2 -0.827; #3 -0.832
